Results taken from patent publication US20050144661A1 (WASHINGTON UNIVERSITY, published 2005).
Results are given in words; binding and its absence hold for the method and conditions named. Some results given as binding are weak or reduced against the parent protein; the word gives no strength.

Biological target: CLuc-14-3-3ε (Photinus pyralis) [luciferase: P08659]
Assay: LCI, live HEK-293 cells

B1: Cdc25C-NLuc (other, human;Photinus pyralis, UniProt P30307 1-473, looked up)
chain: MSTELFSSTREEGSSGSGPSFRSNQRKMLNLLLERDTSFTVCPDVPRTPVGKFLGDSANLSILSGGTPKRCLDLSNLSSGEITATQLTTSADLDETGHLDSSGLQEVHLAGMNHDQHLMKCSPAQLLCSTPNGLDRGHRKRDAMCSSSANKENDNGNLVDSEMKYLGSPITTVPKLDKNPNLGEDQAEEISDELMEFSLKDQEAKVSRSGLYRSPSMPENLNRPRLKQVEKFKDNTIPDKVKKKYFSGQGKLRKGLCLKKTVSLCDITITQMLEEDSNQGHLIGDFSKVCALPTVSGKHQDLKYVNPETVAALLSGKFQGLIEKFYVIDCRYPYEYLGGHIQGALNLYSQEELFNFFLKKPIVPLDTQKRIIIVFHCEFSSERGPRMCRCLREEDRSLNQYPALYYPELYILKGGYRDFFPEYMELCEPQSYCPMHHQDHKTELLRCRSQSKVQEGERQLREQIALLVKDMSPEDAKNIKKGPAPFYPLEDGTAGEQLHKAMKRYALVPGTIAFTDAHIEVNITYAEYFEMSVRLAEAMKRYGLNTNHRIVVCSENSLQFFMPVLGALFIGVAVAPANDIYNERELLNSMNISQPTVVFVSKKGLQKILNVQKKLPIIQKIIIMDSKTDYQGFQSMYTFVTSHLPPGFNEYDFVPESFDRDKTIALIMNSSGSTGLPKGVALPHRTACVRFSHARDPIFGNQIIPDTAILSVVPFHHGFGMFTTLGYLICGFRVVLMYRFEEELFLRSLQDYKIQSALLVPTLFSFFAKSTLIDKYDLSNLHEIASGGAPLSKEVGEAVAKRFHLPGIRQGYGLTETTSAILITPEGDDKPGAVGKVVPFFEAKVVDLDTGKTLGVNQRGELCVRGPMIMSGYVNNPEATNALIDKDG
modifications: phosphorylated on S216 in the cells (Western blot, reduced by UCN-01)
notes: FRB of the NLuc fusion vector replaced by the Cdc25C open reading frame; not shown: Gly/Ser linker region reconstituted up to the BsiWI site
B1 was tested, and the binding was “binds”.
